Laboratory results published in PMC4575209.
These are yes or no findings as the source states them, for the method shown. Binding seen in cells or lysates may run through a third protein. Some results given as binding are weak or reduced against the parent protein; the word gives no strength.

The chains behind the UniProt entries cited, without tags or fusion partners. Residues count along the entry.
UniProt Q02388, residues 17-2944: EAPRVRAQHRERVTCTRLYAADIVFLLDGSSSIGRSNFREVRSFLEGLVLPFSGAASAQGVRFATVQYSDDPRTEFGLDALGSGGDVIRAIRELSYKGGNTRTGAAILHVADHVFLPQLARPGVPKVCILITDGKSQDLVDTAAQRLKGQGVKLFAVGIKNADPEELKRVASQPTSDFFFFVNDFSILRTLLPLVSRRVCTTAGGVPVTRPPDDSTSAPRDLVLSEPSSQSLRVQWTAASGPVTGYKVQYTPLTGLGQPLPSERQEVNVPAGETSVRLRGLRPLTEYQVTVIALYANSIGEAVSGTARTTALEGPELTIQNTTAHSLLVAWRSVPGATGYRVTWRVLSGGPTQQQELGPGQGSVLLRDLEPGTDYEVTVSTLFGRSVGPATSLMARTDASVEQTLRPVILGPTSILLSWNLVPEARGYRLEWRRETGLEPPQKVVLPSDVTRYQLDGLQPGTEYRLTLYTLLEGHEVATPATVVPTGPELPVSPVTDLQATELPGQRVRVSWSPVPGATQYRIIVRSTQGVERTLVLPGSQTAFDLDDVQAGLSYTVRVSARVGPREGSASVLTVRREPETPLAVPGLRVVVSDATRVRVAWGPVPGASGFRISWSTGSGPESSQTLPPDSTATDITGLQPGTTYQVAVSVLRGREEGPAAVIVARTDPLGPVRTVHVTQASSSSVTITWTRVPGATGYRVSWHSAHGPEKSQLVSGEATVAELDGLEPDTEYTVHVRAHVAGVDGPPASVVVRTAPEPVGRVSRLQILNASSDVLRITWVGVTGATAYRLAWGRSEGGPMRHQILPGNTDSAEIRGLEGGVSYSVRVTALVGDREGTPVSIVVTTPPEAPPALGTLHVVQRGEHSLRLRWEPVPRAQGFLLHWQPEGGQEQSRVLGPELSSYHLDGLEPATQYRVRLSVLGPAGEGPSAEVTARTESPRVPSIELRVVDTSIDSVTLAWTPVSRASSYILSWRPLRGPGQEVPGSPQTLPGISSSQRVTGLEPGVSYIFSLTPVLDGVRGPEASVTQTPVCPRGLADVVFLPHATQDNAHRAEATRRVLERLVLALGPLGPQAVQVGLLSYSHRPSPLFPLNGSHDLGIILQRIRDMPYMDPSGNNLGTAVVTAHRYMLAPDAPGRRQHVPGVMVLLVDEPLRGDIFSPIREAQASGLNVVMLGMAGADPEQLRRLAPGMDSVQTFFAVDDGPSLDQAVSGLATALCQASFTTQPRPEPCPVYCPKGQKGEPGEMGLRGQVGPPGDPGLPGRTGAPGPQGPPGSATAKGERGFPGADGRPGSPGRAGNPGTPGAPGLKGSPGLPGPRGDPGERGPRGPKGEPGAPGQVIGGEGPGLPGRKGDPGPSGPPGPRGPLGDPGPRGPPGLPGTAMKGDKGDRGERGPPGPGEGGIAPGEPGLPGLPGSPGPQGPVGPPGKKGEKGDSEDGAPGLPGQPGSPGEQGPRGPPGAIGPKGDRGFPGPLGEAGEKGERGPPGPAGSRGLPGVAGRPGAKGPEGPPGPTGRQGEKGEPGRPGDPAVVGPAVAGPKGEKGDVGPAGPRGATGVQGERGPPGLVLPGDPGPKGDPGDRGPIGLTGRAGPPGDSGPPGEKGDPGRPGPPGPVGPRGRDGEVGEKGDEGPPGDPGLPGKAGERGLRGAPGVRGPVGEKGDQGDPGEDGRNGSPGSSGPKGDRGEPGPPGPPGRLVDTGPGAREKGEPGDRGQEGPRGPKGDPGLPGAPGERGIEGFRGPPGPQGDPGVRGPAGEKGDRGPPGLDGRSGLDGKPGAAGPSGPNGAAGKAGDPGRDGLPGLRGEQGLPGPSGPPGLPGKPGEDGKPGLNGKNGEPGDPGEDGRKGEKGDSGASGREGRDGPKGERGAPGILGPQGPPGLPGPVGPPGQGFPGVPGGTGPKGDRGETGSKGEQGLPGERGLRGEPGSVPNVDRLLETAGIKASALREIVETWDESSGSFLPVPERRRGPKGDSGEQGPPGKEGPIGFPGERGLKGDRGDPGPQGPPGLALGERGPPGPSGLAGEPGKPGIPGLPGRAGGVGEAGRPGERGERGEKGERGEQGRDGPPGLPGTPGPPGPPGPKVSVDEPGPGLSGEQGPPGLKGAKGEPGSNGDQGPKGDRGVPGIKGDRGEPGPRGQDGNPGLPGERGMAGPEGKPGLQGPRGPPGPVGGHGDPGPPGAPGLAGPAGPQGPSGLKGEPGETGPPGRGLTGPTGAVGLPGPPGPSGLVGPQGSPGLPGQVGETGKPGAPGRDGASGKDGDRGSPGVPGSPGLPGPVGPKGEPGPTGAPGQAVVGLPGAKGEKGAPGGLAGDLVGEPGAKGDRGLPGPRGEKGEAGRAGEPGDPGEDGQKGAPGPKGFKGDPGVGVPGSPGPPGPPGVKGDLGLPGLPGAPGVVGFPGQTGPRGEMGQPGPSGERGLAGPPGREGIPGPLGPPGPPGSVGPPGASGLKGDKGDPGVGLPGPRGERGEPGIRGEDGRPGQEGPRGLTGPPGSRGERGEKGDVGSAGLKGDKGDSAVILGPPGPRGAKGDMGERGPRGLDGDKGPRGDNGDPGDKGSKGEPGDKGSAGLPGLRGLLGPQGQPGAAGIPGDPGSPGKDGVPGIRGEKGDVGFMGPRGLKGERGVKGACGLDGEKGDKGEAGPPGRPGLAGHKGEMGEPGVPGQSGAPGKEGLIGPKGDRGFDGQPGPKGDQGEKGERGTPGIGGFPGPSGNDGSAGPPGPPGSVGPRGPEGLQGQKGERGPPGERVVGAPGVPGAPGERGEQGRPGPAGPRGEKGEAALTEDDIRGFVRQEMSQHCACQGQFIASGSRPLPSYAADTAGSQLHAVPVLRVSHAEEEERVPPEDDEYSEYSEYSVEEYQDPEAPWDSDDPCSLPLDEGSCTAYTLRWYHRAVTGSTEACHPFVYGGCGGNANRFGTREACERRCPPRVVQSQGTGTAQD
UniProt O60568, residues 25-738: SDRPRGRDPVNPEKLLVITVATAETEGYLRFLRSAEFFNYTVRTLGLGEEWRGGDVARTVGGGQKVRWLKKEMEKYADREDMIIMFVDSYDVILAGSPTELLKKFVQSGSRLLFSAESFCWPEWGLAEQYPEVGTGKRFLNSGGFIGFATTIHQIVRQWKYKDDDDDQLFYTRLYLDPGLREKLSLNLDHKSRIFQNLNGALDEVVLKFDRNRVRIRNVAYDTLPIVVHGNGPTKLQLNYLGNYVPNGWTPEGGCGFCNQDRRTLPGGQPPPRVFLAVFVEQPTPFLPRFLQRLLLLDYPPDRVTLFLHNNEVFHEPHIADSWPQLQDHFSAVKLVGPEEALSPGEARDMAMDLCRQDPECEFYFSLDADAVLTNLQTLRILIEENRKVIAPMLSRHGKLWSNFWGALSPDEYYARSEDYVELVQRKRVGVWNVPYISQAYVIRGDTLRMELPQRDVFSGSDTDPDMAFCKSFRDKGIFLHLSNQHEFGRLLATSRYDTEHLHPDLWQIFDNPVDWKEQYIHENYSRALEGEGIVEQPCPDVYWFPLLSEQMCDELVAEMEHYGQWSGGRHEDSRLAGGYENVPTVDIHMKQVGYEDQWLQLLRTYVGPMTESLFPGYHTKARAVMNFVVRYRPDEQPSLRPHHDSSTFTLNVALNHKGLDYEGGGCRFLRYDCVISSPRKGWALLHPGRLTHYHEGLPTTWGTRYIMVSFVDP

Columns and labels:
[1] = target: type VII collagen, endogenous in normal human skin (human (endogenous in normal skin)) (UniProt Q02388); experiment: proximity ligation; Duolink in situ PLA on frozen sections of human skin; rabbit polyclonal LH3 antibody (1:10) with mouse LH7.2 to type VII collagen (1:800) or with an antibody to the laminin 332 γ2 chain, overnight at 4°C
[2] = target: type VII collagen, retrovirally expressed from COL7A1 in RDEB keratinocytes (human) (UniProt Q02388); experiment: co-IP; whole cell lysate (200 μg) of RDEB keratinocytes retrovirally expressing COL7A1; rabbit polyclonal serum to type VII collagen, 2 hours at 4°C, protein G magnetic beads, 5 washes (Universal Magnetic Co-IP kit); blot with mouse monoclonal LH3 antibody; controls: normal rabbit IgG, beads alone, COL7A1 null extract

For “lysyl hydroxylase 3 (from UniProt O60568 25-738) (enzyme)”, the binding [1] was “binds” and the binding [2] was “binds”.
